Holding throughout (experiment): EMSA
Background: In EMSA bound probe runs differently from free probe, usually more slowly.

The target in one data set is T1, DNA2 WT (human) (UniProt P51530).
T1 sequence (looked up): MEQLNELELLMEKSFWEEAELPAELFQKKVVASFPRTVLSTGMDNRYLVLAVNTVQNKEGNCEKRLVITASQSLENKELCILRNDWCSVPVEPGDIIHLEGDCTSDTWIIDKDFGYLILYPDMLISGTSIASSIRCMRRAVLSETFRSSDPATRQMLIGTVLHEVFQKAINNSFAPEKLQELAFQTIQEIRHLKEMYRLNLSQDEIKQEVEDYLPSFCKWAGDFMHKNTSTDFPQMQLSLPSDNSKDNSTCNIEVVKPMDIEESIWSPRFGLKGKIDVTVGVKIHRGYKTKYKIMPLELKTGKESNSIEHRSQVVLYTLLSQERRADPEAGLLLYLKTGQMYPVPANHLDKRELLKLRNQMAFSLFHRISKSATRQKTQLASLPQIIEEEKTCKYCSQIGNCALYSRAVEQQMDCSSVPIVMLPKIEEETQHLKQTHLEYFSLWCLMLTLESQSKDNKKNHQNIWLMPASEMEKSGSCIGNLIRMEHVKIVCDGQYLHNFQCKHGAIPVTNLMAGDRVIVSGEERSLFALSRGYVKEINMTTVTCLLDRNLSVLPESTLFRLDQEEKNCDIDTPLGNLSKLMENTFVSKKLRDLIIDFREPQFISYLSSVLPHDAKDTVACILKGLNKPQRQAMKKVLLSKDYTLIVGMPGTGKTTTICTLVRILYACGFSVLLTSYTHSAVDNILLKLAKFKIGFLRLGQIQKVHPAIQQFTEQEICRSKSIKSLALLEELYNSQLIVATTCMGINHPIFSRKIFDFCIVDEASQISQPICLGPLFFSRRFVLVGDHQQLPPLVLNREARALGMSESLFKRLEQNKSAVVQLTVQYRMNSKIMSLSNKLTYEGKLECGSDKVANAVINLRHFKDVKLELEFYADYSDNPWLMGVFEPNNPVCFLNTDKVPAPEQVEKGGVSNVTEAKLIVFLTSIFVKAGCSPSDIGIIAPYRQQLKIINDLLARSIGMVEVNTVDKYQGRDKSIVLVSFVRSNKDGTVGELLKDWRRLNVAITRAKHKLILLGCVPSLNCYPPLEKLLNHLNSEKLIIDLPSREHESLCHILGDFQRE
The following applies: 20 nM protein, EMSA: 25 mM Tris-HCl pH 8.0, 0.1 mg/ml BSA, 5 mM EDTA, with or without 1 mM DTT, 30 min on ice, 4-5 nM FAM-DNA or 1 nM 32P-DNA, recombinant protein, residues 1-1060, protein details: His6 and FLAG, label: FAM.

Another data set concerns the target T2, DNA2 C396S (human) (UniProt P51530).
T2 sequence (looked up): T1 sequence (looked up) with C396S
To be noted: 200 nM protein, EMSA: 25 mM Tris-HCl pH 8.0, 0.1 mg/ml BSA, 5 mM EDTA, with or without 1 mM DTT, 30 min on ice, recombinant protein, residues 1-1060, protein details: His6 and FLAG, label: FAM; for binding result: 4-5 nM FAM-DNA or 1 nM 32P-DNA.

The target in a further data set is T3, HLTF (human) (UniProt Q14527).
T3 sequence (looked up, limits assumed): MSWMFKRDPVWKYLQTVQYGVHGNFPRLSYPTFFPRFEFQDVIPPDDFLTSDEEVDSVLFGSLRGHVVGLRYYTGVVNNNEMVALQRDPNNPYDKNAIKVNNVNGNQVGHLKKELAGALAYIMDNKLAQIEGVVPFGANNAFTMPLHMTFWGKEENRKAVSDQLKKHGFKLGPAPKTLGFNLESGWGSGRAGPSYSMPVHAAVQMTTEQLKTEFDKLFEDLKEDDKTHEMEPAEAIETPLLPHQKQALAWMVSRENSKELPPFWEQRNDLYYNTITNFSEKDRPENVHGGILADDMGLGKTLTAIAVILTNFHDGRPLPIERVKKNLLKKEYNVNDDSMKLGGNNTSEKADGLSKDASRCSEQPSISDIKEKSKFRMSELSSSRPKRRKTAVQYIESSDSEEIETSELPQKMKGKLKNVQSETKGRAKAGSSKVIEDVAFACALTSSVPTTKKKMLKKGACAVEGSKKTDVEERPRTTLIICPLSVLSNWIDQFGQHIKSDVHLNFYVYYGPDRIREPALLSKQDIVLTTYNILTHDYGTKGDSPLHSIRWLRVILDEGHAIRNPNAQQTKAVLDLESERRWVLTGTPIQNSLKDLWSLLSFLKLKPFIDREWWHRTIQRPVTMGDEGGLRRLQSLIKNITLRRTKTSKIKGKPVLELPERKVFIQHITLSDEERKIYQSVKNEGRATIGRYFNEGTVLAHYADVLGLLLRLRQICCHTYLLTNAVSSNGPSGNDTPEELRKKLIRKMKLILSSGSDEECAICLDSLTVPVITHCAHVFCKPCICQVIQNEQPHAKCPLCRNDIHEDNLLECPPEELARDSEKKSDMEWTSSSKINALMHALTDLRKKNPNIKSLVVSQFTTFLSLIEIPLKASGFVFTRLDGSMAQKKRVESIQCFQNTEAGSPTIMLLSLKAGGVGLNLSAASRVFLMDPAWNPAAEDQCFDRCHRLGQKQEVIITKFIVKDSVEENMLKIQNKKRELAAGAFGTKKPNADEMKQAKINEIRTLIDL
To be noted: 13 nM protein, not sensitive to H2O2; EMSA: 25 mM Tris-HCl pH 8.0, 0.1 mg/ml BSA, 5 mM EDTA, with or without 1 mM DTT, 30 min on ice; 4-5 nM FAM-DNA or 1 nM 32P-DNA; recombinant protein; protein details: FLAG; label: 5' FAM on X01.

Seven sequences from article PMC7311471, “The iron–sulphur cluster in human DNA2 is required for all biochemical activities of DNA2” can be followed below.

Residue numbers refer to the chain shown, from its start. For at least one entry, the source does not settle the construct or the ends of the probe. For some of these results: The comparison behind a weaker result is the experiment's own reference, which may not be listed here. For some of these results: At least one verdict rests on a figure or table, not on a statement of the authors. Tags and fusion partners may be left off the protein sequences shown.

Consider “ATCGATAGTCGGATCCTCTAGACAGCTCCATGTAGCAAGGCACTGGTAGAATTCGGCAGCGT / ACGCTGCCGAATTCTACCAGTG [5' overhang 40 nt]”, for which the binding result with DNA2 WT (human) (complete binding) is “binds”. In addition, the binding signal with DNA2 C396S (human) (complete binding, 4-5 nM FAM-DNA or 1 nM …) amounted to 100 % bound.
For “ATCGATAGTCGGATCCTCTAGACAGCTCCATGTAGCAAGGCACTGGTAGAATTCGGCAGCGT / ACGCTGCCGAATTCTACCAGTGCCTTG [5' overhang 35 nt]”, the binding result was “binds” with DNA2 WT (human) (complete binding) and “binds more weakly” in the data set with DNA2 C396S (human) (complete only above 35 nt).
As to “ATCGATAGTCGGATCCTCTAGACAGCTCCATGTAGCAAGGCACTGGTAGAATTCGGCAGCGT / ACGCTGCCGAATTCTACCAGTGCCTTGCTACA [5' overhang 30 nt]”, the binding result was “binds” with DNA2 WT (human) (complete binding) and “binds more weakly” with DNA2 C396S (human) (not complete).
As to “ATCGATAGTCGGATCCTCTAGACAGCTCCATGTAGCAAGGCACTGGTAGAATTCGGCAGCGT / ACGCTGCCGAATTCTACCAGTGCCTTGCTACATGGAG [5' overhang 25 nt]”, the results for the binding result in the data set with DNA2 WT (human) (complete binding) and with DNA2 C396S (human) (not complete) were “binds” and “binds more weakly”, respectively.
Turning to “ATCGATAGTCGGATCCTCTAGACAGCTCCATGTAGCAAGGCACTGGTAGAATTCGGCAGCGT / ACGCTGCCGAATTCTACCAGTGCCTTGCTACATGGAGCTGTC [5' overhang 20 nt]”, the figures for the binding result with DNA2 WT (human) (complete binding) and with DNA2 C396S (human) (little binding) were “binds” and “binds more weakly”, respectively.
Consider “ATCGATAGTCGGATCCTCTAGACAGCTCCATGTAGCAAGGCACTGGTAGAATTCGGCAGCGT / ACGCTGCCGAATTCTACCAGTGCCTTGCTACATGGAGCTGTCTAGAG [5' overhang 15 nt]”, for which the binding result in the data set with DNA2 WT (human) (partial binding) and with DNA2 C396S (human) (little binding) was “binds more weakly” each time.
As to “GACGCTGCCGAATTCTACCAGTGCCTTGCTAGGACATCTTTGCCCACCTGCAGGTTCACCC / TGGGTGAACCTGCAGGTGGGCAAAGATGTCCATCTGTTGTAATCGTCAAGCTTTATGCCGTT / GAACGGCATAAAGCTTGACGATTACAACAGATCATGGAGCTGTCTAGAGGATCCGACTATCGA / ATCGATAGTCGGATCCTCTAGACAGCTCCATGTAGCAAGGCACTGGTAGAATTCGGCAGCGT [4-way junction]”, the binding result with HLTF (human) is reported as “binds”.
